Measurements from paper PMC9929932.
No constants are given. Whether binding was seen depends on the method and setting. In cells and extracts the contact can be indirect. Binding calls can cover weak binding; strength is not graded here.

Amino acid sequences for entries named in this document (tags omitted). A change or cut given only in a name is not applied to a line headed by its entry.
UniProt P49023: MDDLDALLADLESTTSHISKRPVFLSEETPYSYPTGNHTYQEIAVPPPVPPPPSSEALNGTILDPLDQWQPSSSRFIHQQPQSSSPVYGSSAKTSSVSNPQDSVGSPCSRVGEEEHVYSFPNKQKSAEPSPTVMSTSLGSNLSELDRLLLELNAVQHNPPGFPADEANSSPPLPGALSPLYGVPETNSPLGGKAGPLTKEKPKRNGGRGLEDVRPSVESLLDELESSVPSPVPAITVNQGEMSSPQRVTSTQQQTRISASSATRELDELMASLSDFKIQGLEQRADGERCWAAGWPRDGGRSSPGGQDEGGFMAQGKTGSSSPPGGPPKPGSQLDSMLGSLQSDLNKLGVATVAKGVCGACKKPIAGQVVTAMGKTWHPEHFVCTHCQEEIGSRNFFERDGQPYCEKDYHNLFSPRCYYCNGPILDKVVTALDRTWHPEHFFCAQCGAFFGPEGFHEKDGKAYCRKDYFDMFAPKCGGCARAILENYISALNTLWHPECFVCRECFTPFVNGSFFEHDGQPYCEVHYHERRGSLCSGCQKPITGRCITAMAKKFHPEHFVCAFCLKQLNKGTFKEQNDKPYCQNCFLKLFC
UniProt Q64727: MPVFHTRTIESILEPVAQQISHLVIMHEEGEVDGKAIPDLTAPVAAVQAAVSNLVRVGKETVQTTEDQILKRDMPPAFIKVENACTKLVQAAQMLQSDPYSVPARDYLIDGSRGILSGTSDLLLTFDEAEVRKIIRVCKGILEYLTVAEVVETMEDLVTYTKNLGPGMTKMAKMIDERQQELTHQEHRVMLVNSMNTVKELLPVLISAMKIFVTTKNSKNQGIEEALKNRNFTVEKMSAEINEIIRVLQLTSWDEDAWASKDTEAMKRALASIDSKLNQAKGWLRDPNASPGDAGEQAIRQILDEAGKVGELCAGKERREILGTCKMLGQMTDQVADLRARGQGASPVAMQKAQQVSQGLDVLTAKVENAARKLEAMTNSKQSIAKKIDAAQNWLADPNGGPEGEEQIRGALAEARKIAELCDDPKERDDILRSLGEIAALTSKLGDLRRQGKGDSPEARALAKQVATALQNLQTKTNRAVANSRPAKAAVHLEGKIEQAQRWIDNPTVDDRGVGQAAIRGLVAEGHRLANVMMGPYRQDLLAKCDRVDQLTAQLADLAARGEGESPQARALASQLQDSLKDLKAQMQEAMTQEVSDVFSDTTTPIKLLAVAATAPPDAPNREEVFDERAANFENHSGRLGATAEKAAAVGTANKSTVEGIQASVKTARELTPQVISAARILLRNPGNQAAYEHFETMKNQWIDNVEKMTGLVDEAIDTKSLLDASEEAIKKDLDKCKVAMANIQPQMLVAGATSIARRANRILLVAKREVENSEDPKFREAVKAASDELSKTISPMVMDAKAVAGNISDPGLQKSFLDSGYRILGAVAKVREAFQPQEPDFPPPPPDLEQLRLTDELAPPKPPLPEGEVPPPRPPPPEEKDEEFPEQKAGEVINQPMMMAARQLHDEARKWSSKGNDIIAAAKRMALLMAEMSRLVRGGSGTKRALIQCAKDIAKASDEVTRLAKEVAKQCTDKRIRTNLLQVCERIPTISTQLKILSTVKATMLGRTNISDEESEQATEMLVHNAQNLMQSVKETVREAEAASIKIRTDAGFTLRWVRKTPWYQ

How the values were obtained:
[1] = molecular target: non-phosphorylatable human Y118F-Paxillin (Y118F-Paxillin-T2A-GFP) (human) (UniProt P49023); experiment: co-IP; in vivo: RIPA lysate of YUMM1.7 melanoma tumors grown in C57BL/6J mice; 1,000 µg total protein with 5 µg rabbit anti-Paxillin overnight at 4°C, Dynabeads Protein G 2 h at 4°C, three washes with RIPA lysis buffer; Western blot
[2] = molecular target: phosphomimetic human Y118E-Paxillin (Y118E-Paxillin-T2A-GFP) (human) (UniProt P49023); experiment: as above
[3] = molecular target: wildtype human Paxillin (WT-Paxillin-T2A-GFP) (human) (UniProt P49023); experiment: as above
[4] = molecular target: wildtype human Paxillin (WT-Paxillin-T2A-GFP) (human) (UniProt P49023); experiment: co-IP; in vitro: RIPA lysate of YUMM1.7 cells in culture; 1,000 µg total protein with 5 µg rabbit anti-Paxillin overnight at 4°C, Dynabeads Protein G 2 h at 4°C, three washes with RIPA lysis buffer; Western blot
[5] = molecular target: non-phosphorylatable human Y118F-Paxillin (Y118F-Paxillin-T2A-GFP) (human) (UniProt P49023); experiment: as above
[6] = molecular target: phosphomimetic human Y118E-Paxillin (Y118E-Paxillin-T2A-GFP) (human) (UniProt P49023); experiment: as above

binding [1]	binding [2]	binding [3]	binding [4]	binding [5]	binding [6]	Substance
binds	binds					Vinculin (from UniProt Q64727 1-1066)
binds		binds				DOCK180/RacGEF (from UniProt Q8BUR4 1-1865)
binds		binds	binds	binds	binds	CRKII (from UniProt Q64010-1 1-304)
